Measurements taken from the supplement of paper PMC12823440, “Inhibitors supercharge kinase turnover through native proteolytic circuits” (Nature, 2025).
Where a name gives a salt, the structure may show the parent alone. This is one part of the list. Hit calls seldom repeat between salt and free forms of one compound.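 In K562 cells expressing nanoluciferase-fused kinases, luminescence was recorded at 4 h intervals between 2 and 18 h, normalized as percent of control with DMSO at 100% and a positive control at 0%. A significant (2 sigma) signal drop marks a time point as decreased. The authors' rule for a hit is not shown and takes in more than the number of time points.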

Chains of the proteins cited; added tags and fusions are not shown. Lines headed by an entry give the natural chain unless they say otherwise; changes in a name come on top.
UniProt Q9Y616: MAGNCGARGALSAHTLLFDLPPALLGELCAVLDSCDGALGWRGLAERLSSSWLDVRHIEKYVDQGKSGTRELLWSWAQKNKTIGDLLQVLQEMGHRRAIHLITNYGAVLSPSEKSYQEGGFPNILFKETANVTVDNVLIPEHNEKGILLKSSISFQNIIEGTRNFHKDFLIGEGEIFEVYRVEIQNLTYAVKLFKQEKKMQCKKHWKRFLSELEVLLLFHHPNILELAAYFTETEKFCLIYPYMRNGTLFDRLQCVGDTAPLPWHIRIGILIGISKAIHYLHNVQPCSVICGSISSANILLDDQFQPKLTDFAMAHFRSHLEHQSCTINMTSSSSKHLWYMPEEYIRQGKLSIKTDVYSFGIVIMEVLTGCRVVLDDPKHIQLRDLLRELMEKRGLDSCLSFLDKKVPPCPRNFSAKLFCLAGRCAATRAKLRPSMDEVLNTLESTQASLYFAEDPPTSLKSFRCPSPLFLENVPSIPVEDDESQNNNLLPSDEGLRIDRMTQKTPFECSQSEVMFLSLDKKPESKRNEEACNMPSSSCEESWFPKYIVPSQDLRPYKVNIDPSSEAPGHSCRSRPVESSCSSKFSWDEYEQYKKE
UniProt P23458: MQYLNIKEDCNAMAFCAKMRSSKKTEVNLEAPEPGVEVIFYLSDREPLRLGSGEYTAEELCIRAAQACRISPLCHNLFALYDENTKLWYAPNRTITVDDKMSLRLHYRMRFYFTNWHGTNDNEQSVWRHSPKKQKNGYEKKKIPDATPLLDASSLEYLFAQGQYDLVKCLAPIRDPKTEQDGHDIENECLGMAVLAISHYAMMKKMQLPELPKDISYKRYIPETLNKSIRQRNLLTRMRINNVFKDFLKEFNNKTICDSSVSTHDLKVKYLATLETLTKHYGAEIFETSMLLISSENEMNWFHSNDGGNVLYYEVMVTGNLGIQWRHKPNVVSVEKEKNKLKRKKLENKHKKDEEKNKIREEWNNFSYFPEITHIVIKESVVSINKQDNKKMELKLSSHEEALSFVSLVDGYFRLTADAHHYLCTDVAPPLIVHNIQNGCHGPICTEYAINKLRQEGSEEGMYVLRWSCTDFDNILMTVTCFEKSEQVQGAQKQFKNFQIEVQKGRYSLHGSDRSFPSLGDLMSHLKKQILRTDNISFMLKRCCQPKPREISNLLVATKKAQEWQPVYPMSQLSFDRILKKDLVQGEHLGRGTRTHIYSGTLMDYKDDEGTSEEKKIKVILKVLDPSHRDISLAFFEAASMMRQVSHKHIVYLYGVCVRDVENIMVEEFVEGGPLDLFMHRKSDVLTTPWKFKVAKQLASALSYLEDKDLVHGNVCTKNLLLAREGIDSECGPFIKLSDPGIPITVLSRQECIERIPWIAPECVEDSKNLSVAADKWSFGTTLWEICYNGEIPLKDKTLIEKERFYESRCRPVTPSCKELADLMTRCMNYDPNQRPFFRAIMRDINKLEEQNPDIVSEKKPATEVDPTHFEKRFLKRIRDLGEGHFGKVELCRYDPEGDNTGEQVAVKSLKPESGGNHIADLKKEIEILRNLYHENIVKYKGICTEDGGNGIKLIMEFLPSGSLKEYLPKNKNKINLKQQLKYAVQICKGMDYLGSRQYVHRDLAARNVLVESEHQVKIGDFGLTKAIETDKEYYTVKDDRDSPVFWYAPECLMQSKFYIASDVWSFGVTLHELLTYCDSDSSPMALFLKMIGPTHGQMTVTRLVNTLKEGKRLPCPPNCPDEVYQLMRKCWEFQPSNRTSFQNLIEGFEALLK
UniProt P06239: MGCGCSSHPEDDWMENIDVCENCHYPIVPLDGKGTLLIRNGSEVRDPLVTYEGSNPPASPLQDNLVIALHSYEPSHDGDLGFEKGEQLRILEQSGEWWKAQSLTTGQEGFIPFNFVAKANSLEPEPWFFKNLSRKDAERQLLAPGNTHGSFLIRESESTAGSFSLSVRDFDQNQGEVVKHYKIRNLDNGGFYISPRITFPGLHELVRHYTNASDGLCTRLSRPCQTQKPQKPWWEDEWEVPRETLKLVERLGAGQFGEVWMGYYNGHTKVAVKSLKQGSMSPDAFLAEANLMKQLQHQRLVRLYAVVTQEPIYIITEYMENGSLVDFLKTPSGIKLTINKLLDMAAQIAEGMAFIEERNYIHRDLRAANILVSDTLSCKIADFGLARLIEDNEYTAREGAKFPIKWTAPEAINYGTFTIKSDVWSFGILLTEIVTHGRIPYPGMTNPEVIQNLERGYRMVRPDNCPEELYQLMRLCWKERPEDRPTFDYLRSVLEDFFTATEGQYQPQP
UniProt P53667: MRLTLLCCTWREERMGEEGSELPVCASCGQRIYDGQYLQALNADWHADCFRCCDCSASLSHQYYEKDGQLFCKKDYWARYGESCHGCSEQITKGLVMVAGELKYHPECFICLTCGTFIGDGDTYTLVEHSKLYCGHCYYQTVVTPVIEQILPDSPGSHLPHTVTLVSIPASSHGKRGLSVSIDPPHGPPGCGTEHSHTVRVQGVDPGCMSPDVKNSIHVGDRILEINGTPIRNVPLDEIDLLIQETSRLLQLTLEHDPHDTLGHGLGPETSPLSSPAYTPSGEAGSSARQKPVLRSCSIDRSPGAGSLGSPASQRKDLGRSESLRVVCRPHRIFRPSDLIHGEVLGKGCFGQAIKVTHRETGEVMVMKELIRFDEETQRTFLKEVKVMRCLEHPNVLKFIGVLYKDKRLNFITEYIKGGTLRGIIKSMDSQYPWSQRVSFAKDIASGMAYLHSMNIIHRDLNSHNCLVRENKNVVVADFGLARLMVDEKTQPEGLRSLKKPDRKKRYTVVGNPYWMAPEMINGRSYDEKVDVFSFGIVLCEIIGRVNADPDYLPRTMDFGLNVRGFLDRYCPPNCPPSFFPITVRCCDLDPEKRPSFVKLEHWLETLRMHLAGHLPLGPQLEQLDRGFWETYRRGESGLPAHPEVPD
UniProt P53671: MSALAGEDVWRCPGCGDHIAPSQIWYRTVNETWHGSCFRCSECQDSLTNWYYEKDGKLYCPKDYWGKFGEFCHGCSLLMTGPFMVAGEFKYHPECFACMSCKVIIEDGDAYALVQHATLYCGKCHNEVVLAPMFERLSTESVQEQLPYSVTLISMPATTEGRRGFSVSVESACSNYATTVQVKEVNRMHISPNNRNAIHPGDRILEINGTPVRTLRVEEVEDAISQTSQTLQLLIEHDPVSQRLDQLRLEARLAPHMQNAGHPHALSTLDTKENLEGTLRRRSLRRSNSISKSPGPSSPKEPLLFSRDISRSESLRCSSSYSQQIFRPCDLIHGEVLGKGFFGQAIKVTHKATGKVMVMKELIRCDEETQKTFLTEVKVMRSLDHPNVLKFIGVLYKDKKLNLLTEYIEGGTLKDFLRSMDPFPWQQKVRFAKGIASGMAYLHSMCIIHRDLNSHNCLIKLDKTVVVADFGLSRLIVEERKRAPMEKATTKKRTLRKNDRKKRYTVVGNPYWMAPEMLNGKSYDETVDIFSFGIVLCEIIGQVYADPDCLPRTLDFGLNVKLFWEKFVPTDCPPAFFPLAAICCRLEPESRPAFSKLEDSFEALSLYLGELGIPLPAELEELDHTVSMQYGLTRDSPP
UniProt P07948: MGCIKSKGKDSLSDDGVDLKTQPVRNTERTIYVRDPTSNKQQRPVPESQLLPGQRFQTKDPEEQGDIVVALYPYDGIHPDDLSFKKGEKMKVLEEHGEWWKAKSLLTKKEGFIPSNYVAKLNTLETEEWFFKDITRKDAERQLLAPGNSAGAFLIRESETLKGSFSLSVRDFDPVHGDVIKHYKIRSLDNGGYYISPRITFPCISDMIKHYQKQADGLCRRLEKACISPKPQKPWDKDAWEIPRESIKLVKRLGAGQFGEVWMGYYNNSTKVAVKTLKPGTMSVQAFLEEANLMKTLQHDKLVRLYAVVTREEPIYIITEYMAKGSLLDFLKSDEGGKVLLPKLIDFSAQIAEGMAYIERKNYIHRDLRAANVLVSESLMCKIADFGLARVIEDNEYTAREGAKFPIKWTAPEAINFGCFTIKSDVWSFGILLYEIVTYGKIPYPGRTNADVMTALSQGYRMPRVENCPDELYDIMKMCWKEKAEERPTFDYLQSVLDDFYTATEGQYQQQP
UniProt Q12851: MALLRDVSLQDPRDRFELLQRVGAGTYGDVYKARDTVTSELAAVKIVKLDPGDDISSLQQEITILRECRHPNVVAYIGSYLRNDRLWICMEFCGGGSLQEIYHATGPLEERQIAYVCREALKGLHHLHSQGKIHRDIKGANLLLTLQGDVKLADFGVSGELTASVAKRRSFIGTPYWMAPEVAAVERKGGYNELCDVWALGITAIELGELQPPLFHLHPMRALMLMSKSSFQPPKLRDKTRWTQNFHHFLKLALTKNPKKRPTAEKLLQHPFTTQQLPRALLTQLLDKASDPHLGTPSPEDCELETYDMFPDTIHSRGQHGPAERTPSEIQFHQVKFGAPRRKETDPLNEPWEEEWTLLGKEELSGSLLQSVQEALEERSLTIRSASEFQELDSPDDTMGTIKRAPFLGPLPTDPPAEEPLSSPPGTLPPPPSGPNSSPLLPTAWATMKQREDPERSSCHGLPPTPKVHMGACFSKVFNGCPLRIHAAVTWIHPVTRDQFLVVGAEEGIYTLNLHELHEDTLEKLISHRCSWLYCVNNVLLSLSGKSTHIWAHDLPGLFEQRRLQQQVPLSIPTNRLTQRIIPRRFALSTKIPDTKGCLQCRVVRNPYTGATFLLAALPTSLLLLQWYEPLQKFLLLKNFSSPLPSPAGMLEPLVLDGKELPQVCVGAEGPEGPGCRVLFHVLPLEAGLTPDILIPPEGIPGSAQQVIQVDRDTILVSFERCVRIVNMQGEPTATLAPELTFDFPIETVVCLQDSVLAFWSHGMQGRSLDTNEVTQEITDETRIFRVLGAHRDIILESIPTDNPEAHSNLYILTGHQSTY
UniProt P28482, whole entry: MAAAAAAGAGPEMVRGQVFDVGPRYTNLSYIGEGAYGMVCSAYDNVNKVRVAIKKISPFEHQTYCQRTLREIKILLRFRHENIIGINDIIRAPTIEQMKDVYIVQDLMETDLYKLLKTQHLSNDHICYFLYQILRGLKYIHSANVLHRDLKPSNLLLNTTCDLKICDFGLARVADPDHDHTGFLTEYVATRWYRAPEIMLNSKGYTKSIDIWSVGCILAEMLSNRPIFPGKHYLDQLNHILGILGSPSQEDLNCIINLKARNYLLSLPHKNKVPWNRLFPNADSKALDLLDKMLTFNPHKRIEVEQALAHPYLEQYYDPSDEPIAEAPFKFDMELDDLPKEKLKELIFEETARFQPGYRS
UniProt P31152, whole entry: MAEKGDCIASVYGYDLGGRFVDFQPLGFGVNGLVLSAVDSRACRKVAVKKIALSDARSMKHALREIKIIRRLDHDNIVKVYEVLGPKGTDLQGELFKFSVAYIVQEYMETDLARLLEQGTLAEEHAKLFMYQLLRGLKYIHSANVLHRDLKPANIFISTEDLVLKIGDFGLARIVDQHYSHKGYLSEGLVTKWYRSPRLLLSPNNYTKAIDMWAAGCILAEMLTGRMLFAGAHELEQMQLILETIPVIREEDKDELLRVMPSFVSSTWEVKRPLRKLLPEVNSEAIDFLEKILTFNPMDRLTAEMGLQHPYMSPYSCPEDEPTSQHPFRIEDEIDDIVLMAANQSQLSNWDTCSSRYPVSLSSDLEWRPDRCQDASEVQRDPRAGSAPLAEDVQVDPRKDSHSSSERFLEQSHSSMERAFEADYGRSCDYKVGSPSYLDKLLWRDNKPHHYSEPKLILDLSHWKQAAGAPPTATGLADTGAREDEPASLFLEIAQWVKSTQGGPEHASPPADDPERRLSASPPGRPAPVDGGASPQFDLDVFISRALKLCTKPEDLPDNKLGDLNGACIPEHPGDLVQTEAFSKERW
UniProt P49137, whole entry, looked up: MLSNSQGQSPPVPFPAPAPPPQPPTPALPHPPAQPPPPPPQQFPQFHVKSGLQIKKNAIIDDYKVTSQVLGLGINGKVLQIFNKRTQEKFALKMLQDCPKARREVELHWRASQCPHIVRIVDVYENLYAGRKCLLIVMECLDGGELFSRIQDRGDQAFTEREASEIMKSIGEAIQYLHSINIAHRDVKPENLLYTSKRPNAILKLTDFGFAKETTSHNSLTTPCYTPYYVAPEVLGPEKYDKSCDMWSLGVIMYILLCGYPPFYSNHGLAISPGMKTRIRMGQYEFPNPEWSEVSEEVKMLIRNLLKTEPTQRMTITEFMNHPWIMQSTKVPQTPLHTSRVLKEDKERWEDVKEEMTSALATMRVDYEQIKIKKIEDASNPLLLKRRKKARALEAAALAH
UniProt Q96KB5: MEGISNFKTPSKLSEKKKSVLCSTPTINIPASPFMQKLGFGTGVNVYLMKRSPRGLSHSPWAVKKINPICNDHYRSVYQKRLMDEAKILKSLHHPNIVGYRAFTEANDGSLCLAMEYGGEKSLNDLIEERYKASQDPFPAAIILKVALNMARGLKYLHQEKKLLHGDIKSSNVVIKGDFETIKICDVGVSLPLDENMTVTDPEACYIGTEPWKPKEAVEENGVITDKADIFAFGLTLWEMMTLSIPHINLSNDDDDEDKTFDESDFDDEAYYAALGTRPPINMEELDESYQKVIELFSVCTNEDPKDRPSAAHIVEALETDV

Columns and labels:
Assay in all cases: kinase-Nluc reporter destabilization hit call (1 = scored as downregulated) (binary); higher = compound decreases kinase abundance
Details in all cases: K562; 2-18 h
IRAK3 = IRAK3 (UniProt Q9Y616)
JAK1 = JAK1 (UniProt P23458)
LCK = LCK (UniProt P06239)
LIMK1 = LIMK1 (UniProt P53667)
LIMK2 = LIMK2 (UniProt P53671)
LMTK2 = LMTK2 (UniProt Q8IWU2)
LYN = LYN (UniProt P07948)
MAP2K1 = MAP2K1 (UniProt Q02750)
MAP2K2 = MAP2K2 (UniProt P36507)
MAP4K2 = MAP4K2 (UniProt Q12851)
MAPK1 = MAPK1 (UniProt P28482)
MAPK4 = MAPK4 (UniProt P31152)
MAPKAPK2 = MAPKAPK2 (UniProt P49137)
MKNK1 = MKNK1 (UniProt Q9BUB5)
NTRK2 = NTRK2 (UniProt Q16620)
NTRK3 = NTRK3 (UniProt Q16288)
PAK4 = PAK4 (UniProt O96013)
PBK = PBK (UniProt Q96KB5)
PDGFRB = PDGFRB (UniProt P09619)
PDK1 = PDK1 (UniProt Q15118)

| SMILES | kinase-Nluc reporter destabilization hit call (IRAK3) | kinase-Nluc reporter destabilization hit call (JAK1) | kinase-Nluc reporter destabilization hit call (LCK) | kinase-Nluc reporter destabilization hit call (LIMK1) | kinase-Nluc reporter destabilization hit call (LIMK2) | kinase-Nluc reporter destabilization hit call (LMTK2) | kinase-Nluc reporter destabilization hit call (LYN) | kinase-Nluc reporter destabilization hit call (MAP2K1) | kinase-Nluc reporter destabilization hit call (MAP2K2) | kinase-Nluc reporter destabilization hit call (MAP4K2) | kinase-Nluc reporter destabilization hit call (MAPK1) | kinase-Nluc reporter destabilization hit call (MAPK4) | kinase-Nluc reporter destabilization hit call (MAPKAPK2) | kinase-Nluc reporter destabilization hit call (MKNK1) | kinase-Nluc reporter destabilization hit call (NTRK2) | kinase-Nluc reporter destabilization hit call (NTRK3) | kinase-Nluc reporter destabilization hit call (PAK4) | kinase-Nluc reporter destabilization hit call (PBK) | kinase-Nluc reporter destabilization hit call (PDGFRB) | kinase-Nluc reporter destabilization hit call (PDK1) |
| --- | --- | --- | --- | --- | --- | --- | --- | --- | --- | --- | --- | --- | --- | --- | --- | --- | --- | --- | --- | --- |
| O=C(O)c1sc2cc(Cl)ccc2c1Cl (10 µM) | inactive: 0 | inactive: 0 | inactive: 0 | inactive: 0 | inactive: 0 | inactive: 0 | inactive: 0 | inactive: 0 | inactive: 0 | inactive: 0 | inactive: 0 | inactive: 0 | inactive: 0 | inactive: 0 | inactive: 0 | inactive: 0 | inactive: 0 | inactive: 0 | inactive: 0 | inactive: 0 |
| Nc1ncnc2c1ncn2[C@@H]1O[C@@H]2COP(O)(=S)O[C@H]2[C@H]1O (stereo partly drawn) [Sp-cAMPS (sodium salt)] (10 µM) | inactive: 0 | inactive: 0 | inactive: 0 | inactive: 0 | inactive: 0 | inactive: 0 | inactive: 0 | inactive: 0 | inactive: 0 | inactive: 0 | inactive: 0 | inactive: 0 | inactive: 0 | inactive: 0 | inactive: 0 | inactive: 0 | inactive: 0 | inactive: 0 | inactive: 0 | inactive: 0 |
| CCN1CCN(C(=O)Cc2ccc(Nc3ncc(F)c(Nc4ccc(C(=O)Nc5ccccc5Cl)cc4)n3)cc2)CC1 (2.5 µM) | inactive: 0 | inactive: 0 | inactive: 0 | inactive: 0 | inactive: 0 | inactive: 0 | inactive: 0 | inactive: 0 | inactive: 0 | inactive: 0 | inactive: 0 | inactive: 0 | inactive: 0 | inactive: 0 | inactive: 0 | inactive: 0 | inactive: 0 | inactive: 0 | inactive: 0 | inactive: 0 |
| C[S+]([O-])/C=C/CCN=C=S (stereo not drawn) [Sulforaphene] (10 µM) | inactive: 0 | inactive: 0 | inactive: 0 | inactive: 0 | inactive: 0 | inactive: 0 | inactive: 0 | inactive: 0 | inactive: 0 | inactive: 0 | inactive: 0 | inactive: 0 | inactive: 0 | inactive: 0 | inactive: 0 | inactive: 0 | inactive: 0 | inactive: 0 | inactive: 0 | inactive: 0 |
| CC(=O)O[C@H]1[C@H]2[C@@H](OC(=O)Cc3ccccc3)[C@@H](C)C[C@]2(OC(C)=O)C(=O)/C(C)=C/[C@@H]2[C@H](CC[C@@]13CO3)C2(C)C [Euphorbiasteroid] (10 µM) | inactive: 0 | inactive: 0 | inactive: 0 | inactive: 0 | inactive: 0 | inactive: 0 | inactive: 0 | inactive: 0 | inactive: 0 | inactive: 0 | inactive: 0 | inactive: 0 | inactive: 0 | inactive: 0 | inactive: 0 | inactive: 0 | inactive: 0 | inactive: 0 | inactive: 0 | inactive: 0 |
| Cc1ccccc1-n1c(Cn2ncc3c(N)ncnc32)nc2cccc(C)c2c1=O (10 µM) | inactive: 0 | inactive: 0 | inactive: 0 | inactive: 0 | inactive: 0 | inactive: 0 | inactive: 0 | inactive: 0 | inactive: 0 | inactive: 0 | inactive: 0 | inactive: 0 | inactive: 0 | inactive: 0 | inactive: 0 | inactive: 0 | inactive: 0 | inactive: 0 | inactive: 0 | inactive: 0 |
| C/C(O)=C(\C#N)C(=O)Nc1cc(Br)ccc1Br (10 µM) | inactive: 0 | inactive: 0 | inactive: 0 | inactive: 0 | inactive: 0 | inactive: 0 | inactive: 0 | inactive: 0 | inactive: 0 | inactive: 0 | inactive: 0 | inactive: 0 | inactive: 0 | inactive: 0 | inactive: 0 | inactive: 0 | inactive: 0 | inactive: 0 | inactive: 0 | inactive: 0 |
| CC1C(=O)OC2C(O)C34C5OC(=O)C3(OC3OC(=O)C(O)C34C(C(C)(C)C)C5O)C12O (stereo not drawn) [Ginkgolide C] (10 µM) | inactive: 0 | inactive: 0 | inactive: 0 | inactive: 0 | inactive: 0 | inactive: 0 | inactive: 0 | inactive: 0 | inactive: 0 | inactive: 0 | inactive: 0 | inactive: 0 | inactive: 0 | inactive: 0 | inactive: 0 | inactive: 0 | inactive: 0 | inactive: 0 | inactive: 0 | inactive: 0 |
| O=C(N[C@@H](COc1ccc2[nH]c(=O)[nH]c2c1)c1ccccc1)c1cccn(Cc2ccc(F)c(F)c2)c1=O (2.5 µM) | inactive: 0 | inactive: 0 | inactive: 0 | inactive: 0 | inactive: 0 | inactive: 0 | inactive: 0 | inactive: 0 | inactive: 0 | inactive: 0 | inactive: 0 | inactive: 0 | inactive: 0 | inactive: 0 | inactive: 0 | inactive: 0 | inactive: 0 | inactive: 0 | inactive: 0 | inactive: 0 |
| C=CC(=O)Nc1ccc2[nH]c(=O)n(C3CCN(Cc4ccc(-c5nc6cc[nH]c(=O)c6cc5-c5ccccc5)cc4)CC3)c2c1 [Borussertib] (10 µM) | inactive: 0 | inactive: 0 | inactive: 0 | inactive: 0 | inactive: 0 | inactive: 0 | inactive: 0 | inactive: 0 | inactive: 0 | inactive: 0 | inactive: 0 | inactive: 0 | inactive: 0 | inactive: 0 | inactive: 0 | inactive: 0 | inactive: 0 | inactive: 0 | inactive: 0 | inactive: 0 |
| CC1=C[C@]23C(=O)[C@@H](C=C(CO)[C@@H](O)[C@]2(O)[C@H]1O)[C@H]1[C@@H](C[C@H]3C)C1(C)C [Ingenol] (10 µM) | inactive: 0 | inactive: 0 | inactive: 0 | inactive: 0 | inactive: 0 | inactive: 0 | inactive: 0 | inactive: 0 | inactive: 0 | inactive: 0 | inactive: 0 | inactive: 0 | inactive: 0 | inactive: 0 | inactive: 0 | inactive: 0 | inactive: 0 | inactive: 0 | inactive: 0 | inactive: 0 |
| C[C@H](Nc1ncnc2[nH]cnc12)c1nc2ccc(F)cc2c(=O)n1-c1ccccc1 [Acalisib] (10 µM) | inactive: 0 | inactive: 0 | inactive: 0 | inactive: 0 | inactive: 0 | inactive: 0 | inactive: 0 | inactive: 0 | inactive: 0 | inactive: 0 | inactive: 0 | inactive: 0 | inactive: 0 | inactive: 0 |  | inactive: 0 | inactive: 0 | inactive: 0 | inactive: 0 | inactive: 0 |
| O=[N+]([O-])/C=C/c1ccc2c(c1)OCO2 (2.5 µM) | inactive: 0 | inactive: 0 | inactive: 0 | inactive: 0 | inactive: 0 | inactive: 0 | inactive: 0 | inactive: 0 | inactive: 0 | inactive: 0 | inactive: 0 | inactive: 0 | inactive: 0 | inactive: 0 | inactive: 0 | inactive: 0 | inactive: 0 | inactive: 0 | inactive: 0 | inactive: 0 |
| C[C@H](CCC(=O)O)C[C@H](C)C[C@H](C)C(=O)/C=C(\O)[C@H](C)C[C@H](C)C/C=C/[C@@H](C)[C@@H](O)[C@@H](C)[C@@H](O)C[C@@H]1CC[C@@](C)([C@H]2CC[C@@](C)([C@@H](C)O)O2)O1 [Ionomycin (calcium)] (2.5 µM) | inactive: 0 | inactive: 0 | inactive: 0 | inactive: 0 | inactive: 0 | inactive: 0 | inactive: 0 | inactive: 0 | inactive: 0 | inactive: 0 | inactive: 0 | inactive: 0 | inactive: 0 | inactive: 0 | active: 1 | inactive: 0 | inactive: 0 | inactive: 0 | inactive: 0 | inactive: 0 |
| CN(C)C(=O)c1ccc(Cn2c(C(=O)O)cc3c(Br)cc(Sc4ccc(Cl)c(Cl)c4)cc32)cc1 [Rheb inhibitor NR1] (10 µM) | inactive: 0 | inactive: 0 | inactive: 0 | inactive: 0 | inactive: 0 | inactive: 0 | inactive: 0 | inactive: 0 | inactive: 0 | inactive: 0 | inactive: 0 | inactive: 0 | inactive: 0 | inactive: 0 |  | inactive: 0 | inactive: 0 | inactive: 0 | inactive: 0 | inactive: 0 |
| O=C1C=CC[C@@H]2[C@H]3CCCN4CCC[C@@H](CN12)[C@@H]34 [Sophocarpine (monohydrate)] (2.5 µM) | inactive: 0 | inactive: 0 | inactive: 0 | inactive: 0 | inactive: 0 | inactive: 0 | inactive: 0 | inactive: 0 | inactive: 0 | inactive: 0 | inactive: 0 | inactive: 0 | inactive: 0 | inactive: 0 | inactive: 0 | inactive: 0 | inactive: 0 | inactive: 0 | inactive: 0 | inactive: 0 |
| C[C@@H]1CC[C@H]2[C@@H](C)C(=O)O[C@@H]3O[C@@]4(C)CC[C@@H]1[C@]32OO4 [Artemisinin] (10 µM) | inactive: 0 | inactive: 0 | inactive: 0 | inactive: 0 | inactive: 0 | inactive: 0 | inactive: 0 | inactive: 0 | inactive: 0 | inactive: 0 | inactive: 0 | inactive: 0 | inactive: 0 | inactive: 0 | inactive: 0 | inactive: 0 | inactive: 0 | inactive: 0 | inactive: 0 | inactive: 0 |
| CCCS(=O)(=O)Nc1ccc(F)c(-n2cc(-c3cncnc3)c3nc(N(C)C4CCN(CC)CC4)ccc32)c1F (2 µM) | inactive: 0 | inactive: 0 | inactive: 0 | inactive: 0 | inactive: 0 | inactive: 0 | inactive: 0 | inactive: 0 | inactive: 0 | inactive: 0 | inactive: 0 | inactive: 0 | inactive: 0 | inactive: 0 | inactive: 0 | inactive: 0 | inactive: 0 | inactive: 0 | inactive: 0 | inactive: 0 |

Taken from above.
For kinase-Nluc reporter destabilization hit call (LIMK2), `O=C(N[C@@H](COc1ccc2[nH]c(=O)[nH]c2c1)c1ccccc1)c1cccn(Cc2ccc(F)c(F)c2)c1=O` (2.5 µM) reads inactive: 0
For kinase-Nluc reporter destabilization hit call (MAP2K2), `CC(=O)O[C@H]1[C@H]2[C@@H](OC(=O)Cc3ccccc3)[C@@H](C)C[C@]2(OC(C)=O)C(=O)/C(C)=C/[C@@H]2[C@H](CC[C@@]13CO3)C2(C)C` [Euphorbiasteroid] (10 µM) reads inactive: 0
